Laboratory results reported in doi:10.1101/2023.03.09.531943.
Numbering of substitutions follows the chain as printed. Like-named read-outs stand apart in the source and are kept apart here. No constants are given. Whether binding was seen depends on the method and setting. A result given as binding can be weak or reduced; the word gives no strength. For some assays here: Binding seen in cells or lysates may run through a third protein. For some assays here: Where a sequence is shown, tags or fusion partners need not be part of it.

Chains of the proteins cited; added tags and fusions are not shown. Lines headed by an entry give the natural chain unless they say otherwise; changes in a name come on top.
UniProt Q94AZ4: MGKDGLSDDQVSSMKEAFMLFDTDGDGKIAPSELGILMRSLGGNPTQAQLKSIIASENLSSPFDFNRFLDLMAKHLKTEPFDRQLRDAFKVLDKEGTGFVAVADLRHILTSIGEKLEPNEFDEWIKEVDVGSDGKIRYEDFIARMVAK
UniProt Q9FYG2: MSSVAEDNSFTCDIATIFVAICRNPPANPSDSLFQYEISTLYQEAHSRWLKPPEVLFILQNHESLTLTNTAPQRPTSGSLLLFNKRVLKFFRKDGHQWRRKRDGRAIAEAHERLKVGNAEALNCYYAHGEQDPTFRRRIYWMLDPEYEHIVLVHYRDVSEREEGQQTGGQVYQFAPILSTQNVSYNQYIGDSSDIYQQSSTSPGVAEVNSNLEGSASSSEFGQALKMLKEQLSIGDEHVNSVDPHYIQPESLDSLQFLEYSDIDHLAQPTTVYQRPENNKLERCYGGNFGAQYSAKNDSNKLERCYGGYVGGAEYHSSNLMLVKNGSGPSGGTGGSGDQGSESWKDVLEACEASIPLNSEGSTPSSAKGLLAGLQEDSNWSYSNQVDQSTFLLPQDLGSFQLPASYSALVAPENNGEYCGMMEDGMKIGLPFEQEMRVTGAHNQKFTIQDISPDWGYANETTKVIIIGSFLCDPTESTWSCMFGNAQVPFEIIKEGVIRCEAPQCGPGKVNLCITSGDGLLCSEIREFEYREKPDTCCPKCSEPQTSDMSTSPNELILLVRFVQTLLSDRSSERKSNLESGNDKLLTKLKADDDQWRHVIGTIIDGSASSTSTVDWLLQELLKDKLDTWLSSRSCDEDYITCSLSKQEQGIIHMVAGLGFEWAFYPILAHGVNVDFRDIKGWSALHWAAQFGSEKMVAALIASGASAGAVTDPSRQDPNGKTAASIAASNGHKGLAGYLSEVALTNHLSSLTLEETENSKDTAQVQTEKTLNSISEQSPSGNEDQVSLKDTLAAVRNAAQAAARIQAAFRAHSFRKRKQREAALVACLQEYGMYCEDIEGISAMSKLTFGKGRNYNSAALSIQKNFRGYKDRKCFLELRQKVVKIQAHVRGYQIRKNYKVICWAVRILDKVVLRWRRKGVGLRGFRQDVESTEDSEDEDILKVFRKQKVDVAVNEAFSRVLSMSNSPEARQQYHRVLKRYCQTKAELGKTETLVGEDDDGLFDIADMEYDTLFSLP
UniProt Q8LPG9: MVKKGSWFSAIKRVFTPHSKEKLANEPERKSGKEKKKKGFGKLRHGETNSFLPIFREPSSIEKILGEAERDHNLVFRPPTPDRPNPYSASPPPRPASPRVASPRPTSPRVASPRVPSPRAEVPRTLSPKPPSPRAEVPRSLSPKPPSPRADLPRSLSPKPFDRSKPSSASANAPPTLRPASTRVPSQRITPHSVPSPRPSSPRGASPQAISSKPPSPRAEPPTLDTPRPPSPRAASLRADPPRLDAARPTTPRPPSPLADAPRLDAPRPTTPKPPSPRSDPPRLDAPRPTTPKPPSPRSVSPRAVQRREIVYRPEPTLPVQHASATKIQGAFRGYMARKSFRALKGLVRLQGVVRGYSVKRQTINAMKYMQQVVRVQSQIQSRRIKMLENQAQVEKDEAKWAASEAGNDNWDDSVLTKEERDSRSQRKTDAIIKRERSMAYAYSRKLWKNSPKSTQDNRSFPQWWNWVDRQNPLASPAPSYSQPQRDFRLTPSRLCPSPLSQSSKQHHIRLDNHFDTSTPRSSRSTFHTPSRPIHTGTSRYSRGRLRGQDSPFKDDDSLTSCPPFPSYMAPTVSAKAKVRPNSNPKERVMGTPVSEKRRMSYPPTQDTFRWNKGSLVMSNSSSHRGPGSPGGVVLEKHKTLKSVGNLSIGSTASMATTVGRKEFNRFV
UniProt F4JIU4: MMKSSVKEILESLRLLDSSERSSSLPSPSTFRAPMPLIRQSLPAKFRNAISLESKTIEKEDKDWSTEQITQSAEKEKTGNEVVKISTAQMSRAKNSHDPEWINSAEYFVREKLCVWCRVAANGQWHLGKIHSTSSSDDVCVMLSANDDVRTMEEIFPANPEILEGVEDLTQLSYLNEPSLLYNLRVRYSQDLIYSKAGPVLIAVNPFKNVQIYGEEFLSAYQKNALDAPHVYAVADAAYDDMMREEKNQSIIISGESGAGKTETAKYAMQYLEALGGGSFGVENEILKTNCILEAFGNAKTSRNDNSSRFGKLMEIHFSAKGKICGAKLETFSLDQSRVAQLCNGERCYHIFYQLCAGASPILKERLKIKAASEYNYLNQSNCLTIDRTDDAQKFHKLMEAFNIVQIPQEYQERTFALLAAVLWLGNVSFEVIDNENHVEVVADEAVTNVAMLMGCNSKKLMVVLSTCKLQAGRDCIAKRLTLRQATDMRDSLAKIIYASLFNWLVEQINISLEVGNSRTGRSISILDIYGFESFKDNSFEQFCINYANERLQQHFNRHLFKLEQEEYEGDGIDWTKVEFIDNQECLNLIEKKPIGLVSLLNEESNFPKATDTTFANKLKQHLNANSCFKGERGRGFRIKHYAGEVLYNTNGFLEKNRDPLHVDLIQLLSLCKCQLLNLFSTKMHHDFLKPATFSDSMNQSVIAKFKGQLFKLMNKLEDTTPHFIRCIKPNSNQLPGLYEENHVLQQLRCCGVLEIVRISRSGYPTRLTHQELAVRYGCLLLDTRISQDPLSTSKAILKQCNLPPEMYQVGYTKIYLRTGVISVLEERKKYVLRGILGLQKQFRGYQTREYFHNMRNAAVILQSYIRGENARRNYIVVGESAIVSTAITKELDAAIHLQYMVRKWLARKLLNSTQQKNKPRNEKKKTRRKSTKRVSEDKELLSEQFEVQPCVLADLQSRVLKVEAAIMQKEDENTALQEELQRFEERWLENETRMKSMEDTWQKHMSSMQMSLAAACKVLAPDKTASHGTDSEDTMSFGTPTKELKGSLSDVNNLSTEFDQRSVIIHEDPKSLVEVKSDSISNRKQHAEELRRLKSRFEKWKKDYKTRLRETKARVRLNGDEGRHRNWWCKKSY

Columns and labels:
[1] = biological target: T1, CML14, yeast two-hybrid bait (pGBKT7-CML14) (Arabidopsis thaliana) (UniProt Q8VZ50); assay: two-hybrid
T1 sequence: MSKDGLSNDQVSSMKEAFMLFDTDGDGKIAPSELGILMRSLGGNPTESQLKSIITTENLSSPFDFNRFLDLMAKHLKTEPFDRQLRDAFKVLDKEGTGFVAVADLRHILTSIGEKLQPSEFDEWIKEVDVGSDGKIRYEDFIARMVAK

[2] = biological target: T2, CML13, yeast two-hybrid bait (pGBKT7-CML13) (Arabidopsis thaliana) (UniProt Q94AZ4); assay: two-hybrid
T2 sequence: T1 sequence with S2G, N8D, E47Q, S48A, T55A, T56S, Q117E, S119N

[3] = biological target: T2, CML13, yeast two-hybrid bait (pGBKT7-CML13) (Arabidopsis thaliana); assay: two-hybrid; remark: listed apart in the source
[4] = biological target: T3, CLuc-CML14 (split-luciferase bait) (Arabidopsis thaliana) (UniProt Q8VZ50); assay: split reporter
T3 sequence: T1 sequence

[5] = biological target: T4, CLuc-CML13 (split-luciferase bait) (Arabidopsis thaliana) (UniProt Q94AZ4); assay: split reporter
T4 sequence: T1 sequence with S2G, N8D, E47Q, S48A, T55A, T56S, Q117E, S119N

Substance | binding [1] | binding [2] | binding [3] | binding [4] | binding [5]
CAMTA2 (AA# 358-1100), yeast two-hybrid prey (Arabidopsis thaliana) (domain or fragment) | binds | binds | binds |  | 
NLuc fusion of the IQ-region of CAMTA4 (split-luciferase prey) (from UniProt Q9FYG2) (domain or fragment) |  |  |  | binds | binds
NLuc fusion of the IQ-region of IQD14 (split-luciferase prey) (from UniProt Q8LPG9) (domain or fragment) |  |  |  | binds | binds
NLuc fusion of the IQ-region of myosin VIII-B (split-luciferase prey) (from UniProt F4JIU4) (domain or fragment) |  |  |  | binds | binds
NLuc fusion of the single-IQ domain of IQM1 (split-luciferase prey) (Arabidopsis thaliana) (domain or fragment) |  |  |  | binds weakly | binds weakly
